Measured values from patent publication US9534300B2, “Water soluble substituted imidazolines as corrosion inhibitors for ferrous metals” (Ecolab USA, Inc., priority 2014, dated 2017).

Assay: Electrochemical corrosion study (Gamry electrochemical corrosion measurement technique)
Details: for Corrosion Rate after 48 hrs (mpy): inhibitor about 25 ppm, unpassivated mild steel coupon, about 120° F. (50° C.), pH about 8.0, 500 rpm
Method: The electrochemical corrosion study was carried out using the Gamry electrochemical corrosion measurement technique. The purpose of the corrosion measurement was to evaluate the performance of the synthesized corrosion inhibitor compositions against Carbon Steel Metallurgy corrosion inhibition.
Experimental conditions used during the corrosion inhibition experiment were: • a) Corrosion rate KPI<3 mpy for Carbon Steel Metallurgy; • b) Gamry Electrochemical Instrument and Pine Rotator; • c) 800 mL test solution into a 1 L glass cell; • d) Dosage of Inhibitor: about 25 ppm; • e) Mild Steel cylindrical coupon polished using 600 SiC polishing paper; • f) No pre-passivation: unpassivated coupons were used directly after polishing; • g) Temperature: about 120° F. (50° C.); • h) pH=about 8.0; and • i) RPM of Pine Rotator: 500 rpm.

Compound | Corrosion Rate after 48 hrs (mpy) | corrosion rate (carbon steel corrosion inhibition), stated in text for FIG. 1 / FIG. 2 (conditions as outlined (about 25 ppm, unpassivated mild steel coupon, 50° C., pH about 8.0)) | corrosion rate under high hardness and high chloride water chemistry conditions (high hardness and high chloride water chemistry, FIG. 3) | appearance of the water chemistry (cloudiness / white precipitate) after heating (high hardness and high chloride water chemistry, after heating for 48 hours)
CCCCCCCC1=NCCN1CCNCCC(=O)O [No. 6, 3-((2-(2-heptyl-4,5-dihydro-1H-imidazol-1-yl)ethyl)amino)propanoic acid] | 8.82 mpy | – | – | –
CCCCCCCCCCCC1=NCCN1CCNCCC(=O)O [No. 7, 3-((2-(2-undecyl-4,5-dihydro-1H-imidazol-1-yl)ethyl)amino)propanoic acid] | 5.62 mpy | – | – | –
CCCCCC1=NCCN1CCNCCC(=O)O [No. 5, 3-((2-(2-pentyl-4,5-dihydro-1H-imidazol-1-yl)ethyl)amino)propanoic acid] | 4.01 mpy | < 5 mpy | < 1 mpy | does not become cloudy or result in any white precipitate
